Read-outs that look alike come from different tables or passages of the source.
Key:
[1] = Effect of ferrous iron as percent of peroxide on the oxidation of pentachlorophenol; conditions: penta 57 ppm, pH 3.5
[2] = Oxidation of pentachlorophenol by hydrogen peroxide/Fe2+, pH effect; conditions: 18.7 ppm before reaction, 40 °C, 3 h
[3] = Oxidation of wood preserving plant process water, effect of catalyst concentration; conditions: phenol 67.2 ppm
[4] = 100 ppm before reaction, 40 °C, 3 h
[5] = phenol 1000 ppm
[6] = Oxidation of wood preserving plant process water, effect of peroxide/COD weight ratio; conditions: phenols 67.2 ppm, pH 3.5
[7] = phenol 1000 ppm, peroxide/phenol 3:1

SMILES: Oc1c(Cl)c(Cl)c(Cl)c(Cl)c1Cl [Pentachlorophenol, pentachlorophenol]
- Residual penta ([1]; Fe2+ 0.3% (w/w) of H2O2): 45.8 ppm
- Residual penta ([1]; Fe2+ 0.6% (w/w) of H2O2): 40.8 ppm
- Residual penta ([1]; Fe2+ 1.8% (w/w) of H2O2): 2.3 ppm
- Residual penta ([1]; Fe2+ 2.5% (w/w) of H2O2): 1.6 ppm
- Residual penta ([1]; Fe2+ 2.9% (w/w) of H2O2): 4.36 ppm
- Residual penta ([1]; Fe2+ 3.9% (w/w) of H2O2): 1.4 ppm
- Residual penta ([1]; Fe2+ 5% (w/w) of H2O2): 0.88 ppm
- Residual penta ([1]; Fe2+ 6.3% (w/w) of H2O2): 0.95 ppm
- Residual penta ([1]; Fe2+ 9.5% (w/w) of H2O2): 0.97 ppm
- Residual penta ([1]; Fe2+ 12.7% (w/w) of H2O2): 0.98 ppm
- Residual penta ([1]; Fe2+ […] (w/w) of H2O2): 11.2 ppm
- penta after reaction ([2]; pH 2.6): 0.02 ppm
- penta after reaction ([2]; pH 2.8): 0.02 ppm
- penta after reaction ([2]; pH 3.6): 0.02 ppm
- penta after reaction ([2]; pH 4.5): 1.38 ppm
- penta after reaction ([2]; pH 5.3): 1.5 ppm
- penta after reaction ([2]; pH 9.5): 17.4 ppm
- penta after reaction ([2]; pH 11.6): 17.4 ppm

SMILES: Oc1ccccc1 [Phenol, phenol]
- residual phenol ([3]; Fe2+ 25.1 ppm, […] (w/w) of H2O2, pH 3.5): < 0.02 ppm
- residual phenol ([3]; Fe2+ 50.2 ppm, 2.4% (w/w) of H2O2, pH 3.5): < 0.02 ppm
- residual phenol ([3]; Fe2+ 100.4 ppm, 4.8% (w/w) of H2O2, pH 3.5): < 0.02 ppm
- residual phenol ([3]; Fe2+ 150 ppm, 7.1% (w/w) of H2O2, pH 11.5): > 50 ppm
- residual phenol ([3]; Fe2+ 150.7 ppm, 7.2% (w/w) of H2O2, pH 3.5): < 0.02 ppm
- residual phenol ([3]; Fe2+ 202 ppm, 9.6% (w/w) of H2O2, pH 3.5): < 0.02 ppm
- phenol after reaction ([4]; pH 3.6): < 0.02 ppm
- phenol after reaction ([4]; pH 7): 60 ppm
- phenol after reaction ([4]; pH 9): 75 ppm
- phenol after reaction ([4]; pH 11.6): 75 ppm
- residual phenol ([5]; peroxide/phenol 1.5:1, Fe2+/H2O2 3% w/w): 100 ppm
- residual phenol ([5]; peroxide/phenol 2:1, Fe2+/H2O2 2.25% w/w): 40 ppm
- residual phenol ([5]; peroxide/phenol 3:1, Fe2+/H2O2 1.5% w/w): < 0.02 ppm
- residual phenol ([6]; H2O2/COD 0.3): < 0.02 ppm
- residual phenol ([6]; H2O2/COD 0.45): < 0.02 ppm
- residual phenol ([6]; H2O2/COD 0.6): < 0.02 ppm
- residual phenol ([6]; H2O2/COD 0.9): < 0.02 ppm
- residual phenol ([6]; H2O2/COD 1.04): < 0.02 ppm
- residual phenol ([6]; H2O2/COD 1.19): < 0.02 ppm
- residual phenol ([6]; H2O2/COD 1.3): < 0.02 ppm
- residual phenol ([7]; Fe2+ 0.5% (w/w) of H2O2): < 0.02 ppm
- residual phenol ([7]; Fe2+ 0.9% (w/w) of H2O2): < 0.02 ppm
- residual phenol ([7]; Fe2+ 1.5% (w/w) of H2O2): < 0.02 ppm
- residual phenol ([7]; Fe2+ 3.7% (w/w) of H2O2): < 0.02 ppm
- residual phenol ([7]; Fe2+ 500 ppm, 17% (w/w) of H2O2): 20 ppm
- residual phenol ([7]; Fe2+ 1000 ppm, 33% (w/w) of H2O2): 20 ppm
